In publication PMC11775527:
These are yes or no findings as the source states them, for the method shown. Binding seen in cells or lysates may run through a third protein. Some entries that bind do so weakly or less than the wild type.

The chains behind the UniProt entries cited, without tags or fusion partners. Residues count along the entry.
UniProt P11021, residues 19-654: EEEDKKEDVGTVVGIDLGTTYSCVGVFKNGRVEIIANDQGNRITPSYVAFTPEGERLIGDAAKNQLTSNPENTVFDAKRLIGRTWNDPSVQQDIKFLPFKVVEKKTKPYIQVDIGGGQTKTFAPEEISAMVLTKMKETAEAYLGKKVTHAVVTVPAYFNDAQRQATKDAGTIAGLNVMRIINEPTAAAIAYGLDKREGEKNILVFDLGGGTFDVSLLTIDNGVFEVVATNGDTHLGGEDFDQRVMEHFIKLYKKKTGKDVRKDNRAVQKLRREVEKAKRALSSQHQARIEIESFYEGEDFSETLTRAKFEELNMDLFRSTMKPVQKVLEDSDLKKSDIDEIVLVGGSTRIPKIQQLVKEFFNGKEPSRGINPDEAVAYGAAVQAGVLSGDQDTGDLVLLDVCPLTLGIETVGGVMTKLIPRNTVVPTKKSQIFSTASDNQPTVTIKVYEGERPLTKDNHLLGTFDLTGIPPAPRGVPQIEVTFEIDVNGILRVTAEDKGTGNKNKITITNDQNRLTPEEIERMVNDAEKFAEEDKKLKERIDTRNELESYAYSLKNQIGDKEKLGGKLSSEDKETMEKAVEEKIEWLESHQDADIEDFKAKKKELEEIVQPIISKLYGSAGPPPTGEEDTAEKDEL

Target: GRP78 (78-kDa glucose-regulated protein) (human (endogenous in human ESCC cell lines)) (UniProt P11021)
Test: co-IP; IP assays with western blot in ESCC cells (KYSE-30 with or without lnc191 knockdown in Figure 7B); which protein was precipitated is not told

binding: binds
Substance: EGFR (from UniProt P00533 25-1210) (receptor)
